These results are taken from article PMC11722412.

The chains behind the UniProt entries cited, without tags or fusion partners. Where a name states a change or a piece, a line headed by the entry shows the natural chain unless it says otherwise. Residues count along the entry.
UniProt Q95X71: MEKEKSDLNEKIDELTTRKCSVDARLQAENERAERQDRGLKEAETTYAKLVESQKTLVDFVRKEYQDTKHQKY
UniProt P02769, residues 25-607: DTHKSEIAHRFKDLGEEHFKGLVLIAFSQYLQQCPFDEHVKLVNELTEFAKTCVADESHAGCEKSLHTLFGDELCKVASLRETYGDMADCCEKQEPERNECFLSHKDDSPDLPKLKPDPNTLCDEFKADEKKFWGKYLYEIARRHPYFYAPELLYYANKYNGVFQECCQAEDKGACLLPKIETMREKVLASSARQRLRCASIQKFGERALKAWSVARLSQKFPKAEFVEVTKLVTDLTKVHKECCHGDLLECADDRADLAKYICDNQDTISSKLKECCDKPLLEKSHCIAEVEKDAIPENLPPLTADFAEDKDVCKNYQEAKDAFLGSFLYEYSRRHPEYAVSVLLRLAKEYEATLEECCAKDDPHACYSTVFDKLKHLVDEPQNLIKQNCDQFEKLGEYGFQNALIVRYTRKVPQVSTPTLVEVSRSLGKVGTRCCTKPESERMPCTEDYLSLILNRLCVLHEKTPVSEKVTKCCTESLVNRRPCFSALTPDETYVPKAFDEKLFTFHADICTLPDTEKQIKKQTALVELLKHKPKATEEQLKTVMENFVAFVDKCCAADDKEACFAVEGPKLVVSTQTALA

In this experiment the target is SSNA-1, the Caenorhabditis elegans ortholog of Sjogren's Syndrome Nuclear Antigen 1 (C. elegans) (UniProt Q95X71). Description: co-sedimentation; purified proteins; SSNA-1 filaments (10 μM) or GMPCPP microtubules (10 μM) incubated 10 min at room temperature with ZYG-1 or BSA (1.25 μM), 30 μL; 80,000 rpm (278,088 x g), TLA-120.2, 10 min, 25°C; soluble and pellet fractions by SDS-PAGE and immunoblotting; in triplicate; both purified. For orientation: A western blot detects proteins with antibodies after separation by electrophoresis.

Results are given in words; binding and its absence hold for the method and conditions named.

Take BSA (from UniProt P02769 25-607): the binding entry is listed as “no binding (tested: 1.25 μM BSA, 10 μM SSNA-1)”.
